Laboratory results reported in patent US20110182904A1.
These are yes or no findings as the source states them, for the method shown.

Legend:
Test in all cases: SPR (Biacore); BMP/GDF amine-coupled to CM5, mAb flowed at 20 ug/ml
BMP6 = molecular target: BMP6
BMP8b = molecular target: BMP8b
BMP5 = molecular target: BMP5
BMP7 = molecular target: BMP7
BMP3 = molecular target: BMP3
GDF5 = molecular target: GDF5
GDF7 = molecular target: GDF7

Binder	binding (BMP6)	binding (BMP8b)	binding (BMP5)	binding (BMP7)	binding (BMP3)	binding (GDF5)	binding (GDF7)
7D6 human monoclonal antibody (antibody, V domains shown) VH: QVQLVQSGAEVKKPGSSVKVSCKASGGTFSSYAISWVRQAPGQGLEWMGRIIPILGIVNYAQKFQGRVTITADKSTSTAYMELSSLRSEDTAVYYCARGKDIWGQGTMVTVSS VL: EIVLTQSPGTLSLSPGERATLSCRASQIVISTYLAWYQQKPGQAPRLLIYGASSRATGIPDRFSGSGSGTDFTLTISRLEPEDFAVYYCQQYGSSPCTFGQGTKLEIK	no binding (tested: 20 ug/ml)	no binding (tested: 20 ug/ml)	no binding (tested: 20 ug/ml)	no binding (tested: 20 ug/ml)	no binding (tested: 20 ug/ml)	–	–
12E3 human monoclonal antibody (antibody, V domains shown) VH: QVQLVESGGGVVQPGRSLRLSCAASGFTFSSYGMHWVRQAPGKGLEWVAVIWDDGRKKYYADSVKGRFTISRDNSKNTLYLQMNSLRAEDTAVYYCAREPAGVWGMDVWGQGTTVTVSS VL: DIQMTQSPSSLSASVGDRVTITCRASQGISSWLAWYQQKPEKAPKSLIYAASSLQSGVPSRFSGSGSGTDFTLTISSLQPEDFATYYCQQYNSYPLTFGGGTKVEIK	no binding (tested: 20 ug/ml)	no binding (tested: 20 ug/ml)	–	–	no binding (tested: 20 ug/ml)	no binding (tested: 20 ug/ml)	no binding (tested: 20 ug/ml)
10F6 human monoclonal antibody (antibody, V domains shown) VH: QVQLVESGGGVVQPGRSLRLSCAASGFTFRSYGIHWVRQAPGKGLEWVAVIWYDGSHKYYADSVKGRFTISRDNSKNTLDLQMNSLRAEDTAVYYCVRGSSNWYFDYWGQGTLVTVSS VL: DIQMTQSPSSLSASVGDRVTITCRASQGISSWLAWYQQKPEKAPKSLIYAASSLQSGVPSRFSGSGSGTDFTLTISSLQPEDFATYYCQQYNSYPLTFGGGTKVEIK	–	–	–	–	no binding (tested: 20 ug/ml)	no binding (tested: 20 ug/ml)	no binding (tested: 20 ug/ml)

The next lines start with the values.

binding (BMP6)	binding (BMP8b)	binding (BMP5)	binding (BMP7)	binding (BMP3)	binding (GDF5)	binding (GDF7)	Binder
no binding (tested: 20 ug/ml)	no binding (tested: 20 ug/ml)	no binding (tested: 20 ug/ml)	–	no binding (tested: 20 ug/ml)	no binding (tested: 20 ug/ml)	no binding (tested: 20 ug/ml)	33F7 human monoclonal antibody (antibody, V domains shown) VH: QVQLVQSGAEVKKPGSSVKVSCKASGGTFSSYAINWVRQAPGQGLEWMGRLIPILGIANYAQKFQGRVTITADKSTSTAYMELSSLRSEDTAVYYCARGKDIWGQGTMVTVSS VL: EIVLTQSPGTLSLSPGERVTLSCRASQSVSSNYLAWYQQKPGQAPRLLIKGASSRATGIPDRFSGSGSGTDFTLTISRLEPEDFAVYYCQQYGSSPCTFGQGTKLEIK
–	no binding (tested: 20 ug/ml)	–	–	no binding (tested: 20 ug/ml)	–	–	16B7 human monoclonal antibody (antibody, V domains shown) VH: QVQLVESGGGVVQPGRSLRLSCAASGFTFSNYGIHWVRQAPGKGLEWVAVIWYDGSHKYYADSMKGRFTISRDNSKNTLDLQMNSLRAEDTAVYYCARGSSSWYFDLWGRGTLVTVSS VL: DIQMTQSPSSLSASVGDRVTITCRASQGISSWLAWYQQKPEKAPKSLIYAASSLQSGVPSRFSGSGSGTDFTLTISSLQPEDFATYYCQQYNSYPLTFGGGTKVEIK
